The values that follow come from paper PMC3869375.

Amino acid sequences for entries named in this document (tags omitted).
UniProt Q6PDK2: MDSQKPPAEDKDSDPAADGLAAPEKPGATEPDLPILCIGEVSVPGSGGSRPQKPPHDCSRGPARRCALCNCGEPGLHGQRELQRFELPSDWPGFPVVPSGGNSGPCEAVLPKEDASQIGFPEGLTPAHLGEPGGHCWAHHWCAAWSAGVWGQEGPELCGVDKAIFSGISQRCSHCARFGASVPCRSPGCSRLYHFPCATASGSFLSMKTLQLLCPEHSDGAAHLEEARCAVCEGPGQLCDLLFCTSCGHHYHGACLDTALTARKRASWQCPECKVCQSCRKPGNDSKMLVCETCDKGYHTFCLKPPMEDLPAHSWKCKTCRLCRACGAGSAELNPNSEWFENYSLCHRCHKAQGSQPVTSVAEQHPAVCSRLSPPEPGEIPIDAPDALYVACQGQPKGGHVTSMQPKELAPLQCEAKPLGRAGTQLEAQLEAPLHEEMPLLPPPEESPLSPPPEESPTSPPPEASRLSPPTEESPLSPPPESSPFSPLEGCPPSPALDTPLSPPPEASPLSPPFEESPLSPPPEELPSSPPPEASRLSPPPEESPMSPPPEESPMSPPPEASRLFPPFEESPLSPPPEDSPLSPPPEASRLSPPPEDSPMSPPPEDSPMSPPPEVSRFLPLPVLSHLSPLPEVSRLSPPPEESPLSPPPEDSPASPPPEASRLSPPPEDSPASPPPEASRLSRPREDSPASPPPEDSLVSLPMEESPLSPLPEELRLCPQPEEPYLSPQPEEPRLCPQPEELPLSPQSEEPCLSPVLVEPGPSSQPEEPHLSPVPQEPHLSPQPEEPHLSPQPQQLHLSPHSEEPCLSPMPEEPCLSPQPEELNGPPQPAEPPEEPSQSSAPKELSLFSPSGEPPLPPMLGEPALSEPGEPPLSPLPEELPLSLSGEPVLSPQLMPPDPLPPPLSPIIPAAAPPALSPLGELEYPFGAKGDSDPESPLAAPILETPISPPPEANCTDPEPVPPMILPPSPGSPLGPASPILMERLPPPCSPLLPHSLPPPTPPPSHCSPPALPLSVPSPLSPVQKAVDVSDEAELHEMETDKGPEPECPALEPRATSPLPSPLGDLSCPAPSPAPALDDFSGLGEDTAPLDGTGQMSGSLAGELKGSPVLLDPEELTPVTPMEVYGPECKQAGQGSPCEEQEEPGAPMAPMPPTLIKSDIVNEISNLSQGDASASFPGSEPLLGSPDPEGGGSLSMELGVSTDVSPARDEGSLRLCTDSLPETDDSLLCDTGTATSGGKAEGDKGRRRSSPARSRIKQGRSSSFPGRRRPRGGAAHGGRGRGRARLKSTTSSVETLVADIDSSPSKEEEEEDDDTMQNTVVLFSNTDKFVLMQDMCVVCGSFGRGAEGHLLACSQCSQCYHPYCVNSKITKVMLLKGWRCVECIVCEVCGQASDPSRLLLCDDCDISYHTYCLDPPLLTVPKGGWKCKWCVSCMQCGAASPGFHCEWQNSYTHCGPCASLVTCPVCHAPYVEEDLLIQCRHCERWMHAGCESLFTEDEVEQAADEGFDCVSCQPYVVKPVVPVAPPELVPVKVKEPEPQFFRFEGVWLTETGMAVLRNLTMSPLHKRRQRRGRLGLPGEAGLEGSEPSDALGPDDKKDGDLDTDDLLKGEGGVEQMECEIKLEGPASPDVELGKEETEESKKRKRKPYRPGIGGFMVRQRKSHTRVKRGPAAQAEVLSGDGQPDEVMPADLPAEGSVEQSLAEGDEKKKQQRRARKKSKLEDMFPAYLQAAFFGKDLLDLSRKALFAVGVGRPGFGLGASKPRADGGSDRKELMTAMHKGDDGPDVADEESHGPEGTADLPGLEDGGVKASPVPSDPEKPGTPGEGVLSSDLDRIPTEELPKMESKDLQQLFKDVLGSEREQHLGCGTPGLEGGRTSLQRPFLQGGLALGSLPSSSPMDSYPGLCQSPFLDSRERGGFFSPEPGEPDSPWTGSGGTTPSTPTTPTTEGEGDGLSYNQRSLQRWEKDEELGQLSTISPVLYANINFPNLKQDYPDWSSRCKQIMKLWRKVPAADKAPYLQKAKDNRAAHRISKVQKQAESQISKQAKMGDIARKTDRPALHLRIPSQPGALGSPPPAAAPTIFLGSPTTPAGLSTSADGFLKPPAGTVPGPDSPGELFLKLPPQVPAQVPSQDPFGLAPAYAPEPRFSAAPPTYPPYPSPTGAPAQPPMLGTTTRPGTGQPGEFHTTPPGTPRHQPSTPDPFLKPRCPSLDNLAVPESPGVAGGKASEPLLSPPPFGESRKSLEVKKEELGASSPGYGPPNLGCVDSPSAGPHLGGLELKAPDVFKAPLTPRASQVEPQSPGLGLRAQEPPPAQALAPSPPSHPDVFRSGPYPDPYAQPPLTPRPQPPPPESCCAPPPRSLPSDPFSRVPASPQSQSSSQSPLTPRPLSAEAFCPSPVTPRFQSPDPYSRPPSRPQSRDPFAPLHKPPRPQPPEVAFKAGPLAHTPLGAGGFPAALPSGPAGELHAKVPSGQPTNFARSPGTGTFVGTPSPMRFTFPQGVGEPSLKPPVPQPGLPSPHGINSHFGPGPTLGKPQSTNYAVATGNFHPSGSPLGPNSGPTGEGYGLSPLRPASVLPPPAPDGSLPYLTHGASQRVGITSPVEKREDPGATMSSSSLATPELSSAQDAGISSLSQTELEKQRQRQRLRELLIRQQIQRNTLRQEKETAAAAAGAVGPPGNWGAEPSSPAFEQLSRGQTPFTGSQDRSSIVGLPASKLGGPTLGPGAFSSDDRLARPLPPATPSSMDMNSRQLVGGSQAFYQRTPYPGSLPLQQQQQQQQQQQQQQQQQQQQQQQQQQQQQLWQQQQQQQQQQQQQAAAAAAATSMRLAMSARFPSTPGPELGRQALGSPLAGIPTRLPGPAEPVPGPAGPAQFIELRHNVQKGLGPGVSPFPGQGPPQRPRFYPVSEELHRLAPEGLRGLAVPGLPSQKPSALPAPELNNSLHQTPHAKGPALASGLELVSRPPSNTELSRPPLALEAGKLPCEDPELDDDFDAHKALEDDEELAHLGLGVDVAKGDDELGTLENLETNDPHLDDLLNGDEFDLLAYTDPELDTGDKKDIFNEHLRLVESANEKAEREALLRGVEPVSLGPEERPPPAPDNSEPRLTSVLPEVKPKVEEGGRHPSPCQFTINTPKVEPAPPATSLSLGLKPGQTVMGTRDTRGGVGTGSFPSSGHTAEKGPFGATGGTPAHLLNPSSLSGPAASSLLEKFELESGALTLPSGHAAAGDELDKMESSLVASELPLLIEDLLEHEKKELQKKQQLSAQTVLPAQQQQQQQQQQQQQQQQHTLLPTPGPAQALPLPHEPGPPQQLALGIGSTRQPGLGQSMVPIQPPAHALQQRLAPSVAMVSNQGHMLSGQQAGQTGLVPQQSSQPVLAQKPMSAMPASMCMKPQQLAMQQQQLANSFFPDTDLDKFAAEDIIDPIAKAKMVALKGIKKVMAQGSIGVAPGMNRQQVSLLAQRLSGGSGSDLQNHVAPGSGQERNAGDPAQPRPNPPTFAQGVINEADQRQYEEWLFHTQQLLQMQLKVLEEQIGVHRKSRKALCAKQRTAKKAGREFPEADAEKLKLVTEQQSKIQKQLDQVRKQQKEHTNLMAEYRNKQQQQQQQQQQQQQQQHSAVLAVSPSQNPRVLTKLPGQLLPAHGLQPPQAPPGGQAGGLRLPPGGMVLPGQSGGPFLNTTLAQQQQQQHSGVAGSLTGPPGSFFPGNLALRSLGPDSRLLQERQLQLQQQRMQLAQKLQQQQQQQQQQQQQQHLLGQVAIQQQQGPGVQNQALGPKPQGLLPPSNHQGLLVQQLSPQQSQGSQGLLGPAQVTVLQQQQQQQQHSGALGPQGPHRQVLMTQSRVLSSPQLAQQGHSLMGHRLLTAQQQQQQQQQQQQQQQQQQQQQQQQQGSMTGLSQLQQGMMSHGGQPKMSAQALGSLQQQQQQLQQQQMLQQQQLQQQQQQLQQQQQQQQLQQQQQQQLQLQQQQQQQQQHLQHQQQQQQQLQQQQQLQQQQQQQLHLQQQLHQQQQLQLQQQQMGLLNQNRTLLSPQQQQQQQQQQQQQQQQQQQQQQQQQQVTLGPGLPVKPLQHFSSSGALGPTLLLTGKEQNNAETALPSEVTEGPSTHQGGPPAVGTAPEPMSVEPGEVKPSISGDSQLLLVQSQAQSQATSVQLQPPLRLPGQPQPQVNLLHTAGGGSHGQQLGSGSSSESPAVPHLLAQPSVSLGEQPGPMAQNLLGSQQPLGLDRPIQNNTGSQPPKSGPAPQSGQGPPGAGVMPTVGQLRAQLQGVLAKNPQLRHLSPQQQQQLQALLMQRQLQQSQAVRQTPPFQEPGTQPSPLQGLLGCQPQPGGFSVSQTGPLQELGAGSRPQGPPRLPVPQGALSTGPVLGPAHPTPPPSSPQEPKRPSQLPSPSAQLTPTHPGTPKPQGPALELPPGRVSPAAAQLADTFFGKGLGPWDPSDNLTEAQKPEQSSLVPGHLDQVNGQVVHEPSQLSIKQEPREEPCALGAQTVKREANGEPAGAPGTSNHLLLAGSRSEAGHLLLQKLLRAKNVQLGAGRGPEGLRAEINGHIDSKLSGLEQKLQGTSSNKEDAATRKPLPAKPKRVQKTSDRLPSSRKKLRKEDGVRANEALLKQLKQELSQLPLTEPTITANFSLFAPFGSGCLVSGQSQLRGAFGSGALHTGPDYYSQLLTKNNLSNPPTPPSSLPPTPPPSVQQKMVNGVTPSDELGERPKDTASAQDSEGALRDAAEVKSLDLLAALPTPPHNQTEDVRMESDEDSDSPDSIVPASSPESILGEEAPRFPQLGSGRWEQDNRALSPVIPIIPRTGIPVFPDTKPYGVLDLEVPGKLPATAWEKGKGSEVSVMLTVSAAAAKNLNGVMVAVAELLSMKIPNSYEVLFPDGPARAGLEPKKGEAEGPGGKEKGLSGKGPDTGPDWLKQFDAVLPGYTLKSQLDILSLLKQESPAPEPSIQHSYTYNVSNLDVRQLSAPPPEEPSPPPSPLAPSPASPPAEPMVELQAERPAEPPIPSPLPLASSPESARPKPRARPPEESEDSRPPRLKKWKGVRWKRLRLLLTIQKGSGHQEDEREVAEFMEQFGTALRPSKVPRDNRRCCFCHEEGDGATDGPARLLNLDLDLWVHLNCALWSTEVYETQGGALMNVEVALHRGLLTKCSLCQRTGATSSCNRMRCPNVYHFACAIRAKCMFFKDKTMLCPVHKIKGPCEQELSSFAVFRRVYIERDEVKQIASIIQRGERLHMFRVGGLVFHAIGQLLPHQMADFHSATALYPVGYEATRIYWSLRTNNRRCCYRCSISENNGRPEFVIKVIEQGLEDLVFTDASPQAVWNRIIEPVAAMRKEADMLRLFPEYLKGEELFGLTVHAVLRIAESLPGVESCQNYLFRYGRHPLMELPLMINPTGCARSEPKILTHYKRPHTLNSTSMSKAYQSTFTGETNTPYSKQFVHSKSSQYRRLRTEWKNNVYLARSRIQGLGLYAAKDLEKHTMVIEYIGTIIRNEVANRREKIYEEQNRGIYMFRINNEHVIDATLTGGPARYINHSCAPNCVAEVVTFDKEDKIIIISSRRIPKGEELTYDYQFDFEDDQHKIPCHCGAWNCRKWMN
UniProt P28033: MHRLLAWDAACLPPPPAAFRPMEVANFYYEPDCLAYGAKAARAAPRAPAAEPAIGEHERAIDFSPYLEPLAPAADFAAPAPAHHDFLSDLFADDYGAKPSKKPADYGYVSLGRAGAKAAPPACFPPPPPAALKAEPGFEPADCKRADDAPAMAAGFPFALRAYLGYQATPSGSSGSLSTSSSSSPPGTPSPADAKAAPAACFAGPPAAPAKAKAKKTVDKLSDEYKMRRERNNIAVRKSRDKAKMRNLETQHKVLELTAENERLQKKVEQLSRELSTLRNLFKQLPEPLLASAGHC

The target of the experiment is MLL4 (KMT2D) (mouse (endogenous in preadipocytes induced for adipogenesis)) (UniProt Q6PDK2). The experiment can be described thus: co-IP; nuclear extracts prepared at day 2 of adipogenesis immunoprecipitated with MLL4 antibody; immunoprecipitates analysed by Western blot.

These are yes or no findings as the source states them, for the method shown. Binding seen in cells or lysates may run through a third protein. Some entries that bind do so weakly or less than the wild type.

On to “CCAAT/enhancer-binding protein-β (C/EBPβ) (from UniProt P28033 1-296)”, for which the binding entry was “binds”.
